US9353132B2, “Boron-based 4-hydroxytamoxifen and endoxifen prodrugs as treatment for breast cancer” (XAVIER UNIVERSITY OF LOUISIANA, priority 2012, dated 2016)

Tested on: T47D cells
Experiment: Cell survival/growth inhibition assay in ER+ T47D breast cancer cells
Assay type: cell-based
Conditions: Homo sapiens, dose-response
Protocol: The T47D cell line is also an ER positive control cell line.
To determine if the novel boron-based prodrugs have equal or better efficacy than tamoxifen, in vitro breast cancer cell proliferation assays were performed using two estrogen receptor positive cell lines, MCF-7 and T47D.
To test if the prodrugs can inhibit growth in another breast cancer cell line that also expresses the estrogen receptor, T47D cells were used. Survival assays using T47D cells confirmed the efficacies of the prodrugs (FIG. 4).

CC/C(=C(\c1ccccc1)c1ccc(OCCN(C)C)cc1)c1ccccc1 [Tamoxifen] gave an IC50 of 1130 nM.
